This note sets out measurements from publication doi:10.1101/2021.09.01.458589.

For the assay, the target named is T1, RPM1-interacting protein4 of Arabidopsis, N-terminally FLAG-tagged (FLAG:AtRIN4) (Arabidopsis), Q8GYN5.
T1 chain: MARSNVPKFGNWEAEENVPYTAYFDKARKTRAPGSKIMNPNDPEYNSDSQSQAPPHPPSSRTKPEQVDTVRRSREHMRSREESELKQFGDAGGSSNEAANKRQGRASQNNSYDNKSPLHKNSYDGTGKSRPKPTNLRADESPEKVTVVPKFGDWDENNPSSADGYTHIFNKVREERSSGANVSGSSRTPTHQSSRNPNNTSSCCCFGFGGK
Kind of assay: co-IP. The conditions noted are these: remark: other sources report otherwise.

Results are given in words; binding and its absence hold for the method and conditions named. Binding seen in cells or lysates may run through a third protein. Tags and fused reporters may be left off the sequences shown.

B1: RPM1-interacting protein4 of Arabidopsis, N-terminally FLAG-tagged (FLAG:AtRIN4), Q8GYN5 1-211 (protein)
chain: T1 chain
Consider B1, for which the binding result was “no binding”.
